PubChem BioAssay AID1259284, Sanger Institute | 2017
Assay: 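Kinase genes needed for growth or acting with cancer drugs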 (primary screen). Cells: SW48 human colorectal cancer cells. Reagent: siRNA pool against human genes. Conditions: anchor drug BYL719 at 1 µM, cetuximab at 5 µg/ml or trametinib at 10 nM, or DMSO vehicle alone. Measured: 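Cell viability relative to non-targeting pool wells, replicate mean, with robust z-scores and drug synergy scores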. Scale: robust z-score, no drug: higher = more cells survive knock-down; viability, no drug: higher = more viable cells; synergy with BYL719 and synergy with trametinib and synergy with cetuximab: higher = stronger combined killing with drug. Hit rule: 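a knock-down is essential if viability without drug gives a robust z-score under -3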. Meaning of the calls: active = essential without drug; inactive = no change without drug.
This is an unselected part of 794 reagents tested. 16 of them (2%) were called active. 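Calls concern knock-down without drug only; drug synergy was judged apart, with scores above 0.15 taken as synergy.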 A number with no mark means an inactive call. No viability above 1 is reported: the scale is capped. The record does not give: the amount of reagent, the time to read-out.

gene knocked down,"robust z-score, no drug","viability, no drug (fraction of control)",synergy with BYL719,synergy with trametinib,synergy with cetuximab
TEX14 (GeneID 56155),0.0631,0.969,-0.104,-0.0814,-0.191
STK38L (GeneID 23012),-0.0748,0.957,-0.12,0.0417,-0.0427
CAMKK1 (GeneID 84254),0.426,1,-0.262,-0.2,-0.115
FGR (GeneID 2268),-0.345,0.934,-0.0399,-0.128,-0.0545
PRKCSH (GeneID 5589),-1.52,0.833,-0.149,-0.193,-0.172
NUP98 (GeneID 4928),0.0401,0.967,-0.125,0.0229,-0.113
CKMT2 (GeneID 1160),0.426,1,-0.169,-0.0902,-0.0212
GRK1 (GeneID 6011),0.426,1,-0.232,-0.319,-0.165
PRKD2 (GeneID 25865),0.426,1,-0.333,-0.151,-0.165
PHKB (GeneID 5257),0.426,1,-0.367,-0.305,-0.165
CSNK1G2 (GeneID 1455),0.426,1,-0.148,-0.00714,-0.101
PFKL (GeneID 5211),0.426,1,-0.194,-0.124,-0.0926
HCK (GeneID 3055),0.426,1,-0.0167,-0.023,-0.0713
PDXK (GeneID 8566),0.426,1,-0.288,-0.223,-0.165
SMG1 (GeneID 23049),-1.83,0.806,-0.156,-0.13,-0.327
RPS6KA3 (GeneID 6197),0.426,1,-0.218,-0.121,-0.165
RET (GeneID 5979),0.426,1,-0.171,-0.051,-0.165
ALK (GeneID 238),0.426,1,-0.189,-0.0324,-0.00915
PDK3 (GeneID 5165),0.426,1,-0.25,-0.241,-0.0754
DLG4 (GeneID 1742),0.426,1,-0.154,-0.113,-0.165
PSKH1 (GeneID 5681),0.426,1,-0.289,-0.157,-0.0967
PRKAA1 (GeneID 5562),0.426,1,-0.0791,-0.025,0.0515
MAPK14 (GeneID 1432),0.426,1,-0.202,-0.163,-0.165
AURKB (GeneID 9212),-1.59,0.827,0.0173,-0.024,-0.00562
CSNK1A1 (GeneID 1452),0.426,1,-0.208,-0.0373,0.0426
PFKFB1 (GeneID 5207),0.426,1,0.00566,0.117,0.0255
ITPKC (GeneID 80271),0.426,1,-0.014,0.0304,-0.0956
MAST4 (GeneID 375449),0.426,1,-0.204,-0.2,0.0526
TNK1 (GeneID 8711),-1.59,0.827,-0.209,-0.0356,-0.129
MAP3K19 (GeneID 80122),0.426,1,-0.107,-0.0243,-0.03
DLG3 (GeneID 1741),0.426,1,-0.323,-0.115,-0.112
COQ8B (GeneID 79934),0.426,1,-0.3,-0.234,-0.165
CAMK2G (GeneID 818),-0.442,0.925,-0.0413,-0.0389,-0.182
CAMK2B (GeneID 816),0.426,1,-0.288,-0.191,0.0196
PAPSS2 (GeneID 9060),0.426,1,-0.141,-0.106,-0.111
ELF3 (GeneID 1999),-0.439,0.926,-0.168,0.0501,-0.0643
PIK3C2G (GeneID 5288),0.426,1,-0.104,0.235,0.0678
FGFR1 (GeneID 2260),0.426,1,-0.145,0.0055,0.0526
CTCF (GeneID 10664),-1.06,0.873,-0.142,-0.0356,-0.0325
DLG1 (GeneID 1739),-0.105,0.954,-0.192,-0.0592,0.00817
BRDT (GeneID 676),0.426,1,-0.143,0.00225,-0.134
NME6 (GeneID 10201),0.426,1,-0.114,0.133,0.159
NME1 (GeneID 4830),0.426,1,-0.345,-0.194,-0.159
MARK1 (GeneID 4139),0.121,0.974,0.00917,-0.0409,0.202
NEK7 (GeneID 140609),0.426,1,-0.367,-0.278,-0.134
FXN (GeneID 2395),0.426,1,-0.345,-0.0503,-0.165
SIK2 (GeneID 23235),-0.431,0.926,-0.211,-0.0317,-0.155
PIK3C3 (GeneID 5289),0.426,1,-0.164,0.0227,-0.159
LMTK1 (GeneID 9625),-0.229,0.944,-0.276,-0.0176,-0.193
MAGI2 (GeneID 9863),-0.876,0.888,-0.235,-0.262,-0.258
AGK (GeneID 55750),0.426,1,-0.262,-0.0947,-0.165
PDK4 (GeneID 5166),0.426,1,-0.246,-0.0656,-0.165
RIOK1 (GeneID 83732),-1.3,0.852,-0.199,-0.079,-0.00406
ATM (GeneID 472),0.426,1,-0.215,-0.1,-0.165
PIP5K1C (GeneID 23396),0.426,1,-0.177,-0.269,-0.107
HK3 (GeneID 3101),0.426,1,-0.176,-0.065,-0.131
PIP4K2A (GeneID 5305),0.426,1,-0.367,-0.242,-0.165
RPS6KA6 (GeneID 27330),0.426,1,-0.148,-0.133,-0.0804
TWF2 (GeneID 11344),0.426,1,-0.134,-0.153,-0.135
CSNK1D (GeneID 1453),0.168,0.978,-0.0341,0.0278,-0.0864
PIP5KL1 (GeneID 138429),0.426,1,-0.178,-0.13,-0.165
GTF2H1 (GeneID 2965),0.426,1,-0.327,-0.14,-0.165
MAP3K13 (GeneID 9175),0.0496,0.968,-0.142,-0.11,-0.0745

Part of the list above, showing only “viability, no drug (fraction of control)”.
CSNK1G2 (GeneID 1455) = 1
PFKL (GeneID 5211) = 1
HCK (GeneID 3055) = 1
PDXK (GeneID 8566) = 1
SMG1 (GeneID 23049) = 0.806
RPS6KA3 (GeneID 6197) = 1
